Source: article PMC3592837
These are yes or no findings as the source states them, for the method shown. Binding seen in cells or lysates may run through a third protein. Some binding calls cover weakened binding; strength is not graded here.

Sequences of proteins named here, by UniProt entry; tags and fusion partners are left off. Residues count along the entry.
UniProt Q62230, residues 20-1695: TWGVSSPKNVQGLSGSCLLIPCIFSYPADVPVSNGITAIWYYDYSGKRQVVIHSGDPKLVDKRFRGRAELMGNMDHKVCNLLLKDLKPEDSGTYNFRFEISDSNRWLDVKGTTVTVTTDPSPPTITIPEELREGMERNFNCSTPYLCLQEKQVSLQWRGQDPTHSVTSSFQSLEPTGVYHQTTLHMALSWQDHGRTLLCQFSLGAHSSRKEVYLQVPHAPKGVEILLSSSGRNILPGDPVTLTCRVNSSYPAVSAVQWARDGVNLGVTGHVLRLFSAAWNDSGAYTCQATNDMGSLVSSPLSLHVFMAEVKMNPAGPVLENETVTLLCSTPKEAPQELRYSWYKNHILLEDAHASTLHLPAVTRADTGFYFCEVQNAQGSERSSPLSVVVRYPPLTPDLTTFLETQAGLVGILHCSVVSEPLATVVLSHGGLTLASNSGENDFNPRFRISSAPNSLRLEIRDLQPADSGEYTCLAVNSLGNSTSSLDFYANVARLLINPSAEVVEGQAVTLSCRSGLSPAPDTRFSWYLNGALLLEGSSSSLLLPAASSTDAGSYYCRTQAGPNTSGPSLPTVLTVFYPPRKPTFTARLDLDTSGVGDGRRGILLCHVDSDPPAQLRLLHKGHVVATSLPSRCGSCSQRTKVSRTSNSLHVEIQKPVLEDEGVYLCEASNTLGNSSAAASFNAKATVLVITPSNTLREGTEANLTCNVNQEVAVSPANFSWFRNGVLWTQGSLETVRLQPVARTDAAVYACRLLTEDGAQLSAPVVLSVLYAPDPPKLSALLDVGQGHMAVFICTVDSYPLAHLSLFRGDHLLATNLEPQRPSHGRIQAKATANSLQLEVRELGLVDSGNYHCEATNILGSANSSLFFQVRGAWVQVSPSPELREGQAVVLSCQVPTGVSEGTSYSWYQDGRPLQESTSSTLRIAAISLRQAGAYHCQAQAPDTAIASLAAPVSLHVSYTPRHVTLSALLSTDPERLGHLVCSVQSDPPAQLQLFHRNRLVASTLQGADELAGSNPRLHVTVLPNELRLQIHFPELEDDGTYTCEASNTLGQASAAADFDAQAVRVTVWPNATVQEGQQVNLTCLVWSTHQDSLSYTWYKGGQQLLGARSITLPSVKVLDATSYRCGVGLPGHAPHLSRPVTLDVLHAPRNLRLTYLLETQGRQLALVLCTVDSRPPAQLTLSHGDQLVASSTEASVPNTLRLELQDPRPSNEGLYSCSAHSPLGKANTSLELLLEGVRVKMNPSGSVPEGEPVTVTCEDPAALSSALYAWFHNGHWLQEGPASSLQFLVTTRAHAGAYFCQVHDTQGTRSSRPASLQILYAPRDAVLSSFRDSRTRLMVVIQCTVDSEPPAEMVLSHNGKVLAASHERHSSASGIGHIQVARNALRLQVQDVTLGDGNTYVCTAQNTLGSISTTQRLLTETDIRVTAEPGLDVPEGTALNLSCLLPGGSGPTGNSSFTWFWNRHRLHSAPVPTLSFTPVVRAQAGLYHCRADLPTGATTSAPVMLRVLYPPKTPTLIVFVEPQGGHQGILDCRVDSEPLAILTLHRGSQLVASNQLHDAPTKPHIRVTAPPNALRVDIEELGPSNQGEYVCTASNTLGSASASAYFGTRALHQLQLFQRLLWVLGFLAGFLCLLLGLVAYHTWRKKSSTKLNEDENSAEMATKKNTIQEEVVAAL

B1: SR-BI (receptor, UniProt Q61009 1-509)
chain: MGGSSRARWVALGLGALGLLFAALGVVMILMVPSLIKQQVLKNVRIDPSSLSFGMWKEIPVPFYLSVYFFEVVNPNEVLNGQKPVVRERGPYVYREFRQKVNITFNDNDTVSFVENRSLHFQPDKSHGSESDYIVLPNILVLGGSILMESKPVSLKLMMTLALVTMGQRAFMNRTVGEILWGYDDPFVHFLNTYLPDMLPIKGKFGLFVGMNNSNSGVFTVFTGVQNFSRIHLVDKWNGLSKIDYWHSEQCNMINGTSGQMWAPFMTPESSLEFFSPEACRSMKLTYNESRVFEGIPTYRFTAPDTLFANGSVYPPNEGFCPCRESGIQNVSTCRFGAPLFLSHPHFYNADPVLSEAVLGLNPNPKEHSLFLDIHPVTGIPMNCSVKMQLSLYIKSVKGIGQTGKIEPVVLPLLWFEQSGAMGGKPLSTFYTQLVLMPQVLHYAQYVLLGLGGLLLLVPIICQLRSQEKCFLFWSGSKKGSQDKEAIQAYSESLMSPAAKGTVLQEAKL
B2: caveolin-1 (protein, UniProt P49817 1-178)
chain: MSGGKYVDSEGHLYTVPIREQGNIYKPNNKAMADEVTEKQVYDAHTKEIDLVNRDPKHLNDDVVKIDFEDVIAEPEGTHSFDGIWKASFTTFTVTKYWFYRLLSTIFGIPMALIWGIYFAILSFLHIWAVVPCIKSFLIEIQCISRVYSIYVHTFCDPLFEAIGKIFSNIRISTQKEI

Assays:
[1] = biological target: T1, SR-BI (mouse (endogenous in bone marrow-derived macrophages)) (UniProt Q61009); assay: co-IP; cell membrane protein (0.5 mg) of mouse BMMs stimulated with oxLDL (100 µg/ml), PMA (20 ng/ml) or LPS (0.1 µg/ml) for 48 h; IP with 3 µg rat anti-Siglec-1 (3D6.112) or rabbit polyclonal to SR-BI overnight at 4°C, Pierce Classic IP Kit; immunoblot
T1 sequence: B1 chain

[2] = biological target: Siglec-1 (mouse (endogenous in bone marrow-derived macrophages)) (UniProt Q62230); assay: co-IP; as a1, but BMMs not stimulated (culture medium for 48 h)
[3] = biological target: Siglec-1 (mouse (endogenous in bone marrow-derived macrophages)) (UniProt Q62230); assay: co-IP; cell membrane protein (0.5 mg) of mouse BMMs stimulated with oxLDL (100 µg/ml), PMA (20 ng/ml) or LPS (0.1 µg/ml) for 48 h; IP with 3 µg rat anti-Siglec-1 (3D6.112) or rabbit polyclonal to SR-BI overnight at 4°C, Pierce Classic IP Kit; immunoblot

Molecule	binding [1]	binding [2]	binding [3]
Siglec-1 (from UniProt Q62230 20-1695) (receptor)	binds		
B1		binds weakly	binds
B2	no binding		
